Data taken from US11248022B2, “Glypican-3 peptide reagents and methods” (THE REGENTS OF THE UNIVERSITY OF MICHIGAN, priority 2017, dated 2022).

How the values were obtained:
Hep3B xenograft tumors = test: Ex vivo confocal validation on Hep3B xenograft sections and normal liver; parameters: species or system mice; conditions: mouse xenograft sections
From the text: The specimens were also sectioned for collection of confocal images to perform microscopic validation of peptide binding ex vivo.

human HCC = test: Immunofluorescence on human liver biopsies ex vivo
From the text: Specific peptide binding to human HCC was confirmed on patient biopsies (n=41) ex vivo from University of Michigan Hospital. […] Antibody staining of the same tissue confirmed minimal GPC3 expression, FIG. 15B. Binding by ALL*-Cy5.5 peptide and AF488-labeled anti-GPC3 antibody co-localized on normal liver specimen with Pearson's correlation coefficient of p=0.62, FIG. 15C. Co-stained regions were also imaged at 40×, FIG. 15D and 100× (dashed box in Panel D) magnifications, FIG. 15E.
Quantitative comparison of ALL*-Cy5.5 binding to human HCC with normal liver, adenoma and cirrhosis tissue was summarized in FIG. 15U.

Sequence: ALLANHEELFQT (SEQ ID NO: 1) peptide labeled with Cy5.5 via a GGGSK linker on the C-terminus (C-terminal GGGSK linker with Cy5.5) [ALL*-Cy5.5]
- area under curve AUC (ROC) (Hep3B xenograft tumors; HCC from normal liver): 0.98
- sensitivity for distinguishing HCC from normal liver (ROC) (Hep3B xenograft tumors): 96.2%
- specificity for distinguishing HCC from normal liver (ROC) (Hep3B xenograft tumors): 92.3%
- area under curve AUC (ROC) (human HCC; HCC from all non-HCC tissue): 0.98
- sensitivity (ROC) (human HCC; HCC from all non-HCC tissue): 93%
- specificity (ROC) (human HCC; HCC from all non-HCC tissue): 88%
- area under curve AUC (ROC) (human HCC; HCC from cirrhosis): 0.97
- sensitivity (ROC) (human HCC; HCC from cirrhosis): 87%
- specificity (ROC) (human HCC; HCC from cirrhosis): 100%
- Pearson's correlation coefficient of co-localization with AF488-labeled anti-GPC3 antibody (human HCC; HCC tissue): 0.66
- Pearson's correlation coefficient of co-localization with AF488-labeled anti-GPC3 antibody (human HCC; adenoma tissue): 0.63
- Pearson's correlation coefficient of co-localization with AF488-labeled anti-GPC3 antibody (human HCC; cirrhotic liver tissue): 0.57
- Pearson's correlation coefficient of co-localization with AF488-labeled anti-GPC3 antibody (human HCC; normal liver specimen): 0.62
